Structures can show the parent of a compound that is named as a salt. The list shows a part of the results. Single values are uncertain here, since repeats match poorly.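 Screen of FDA-approved drugs, each combined with colistin at one-eighth of its MIC, against a multidrug-resistant mcr-1-positive clinical E. coli isolate; growth read as OD600 after 24 h. Bacteria without drug were the growth control and plain broth the blank. A combination counted as active when OD600 fell below 0.2.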
Tested on: Escherichia coli 42 (mcr-1-positive clinical isolate)
Assay: OD600 after 24 h growth with compound plus colistin (absorbance units (OD600)); higher = more bacterial growth (less inhibition)
Conditions: first compound 25 µM; colistin concentration 0.5 ug/mL; incubation time 24 h; 37 °C

Row | Compound | OD600
1 | COC(=O)[C@H](c1ccccc1Cl)N1CCc2sccc2C1 [Clopidogrel] + CCC(C)CCCC(=O)N[C@@H](CCN)C(=O)N[C@H](C(=O)N[C@@H](CCN)C(=O)N[C@H]1CCNC(=O)[C@H]([C@@H](C)O)NC(=O)[C@H](CCN)NC(=O)[C@H](CCN)NC(=O)[C@H](CC(C)C)NC(=O)[C@@H](CC(C)C)NC(=O)[C@H](CCN)NC1=O)[C@@H](C)O [colistin] | inactive: 0.999
2 | C[C@@H]1C/C=C/C=C/C=C/C=C/[C@H](O[C@@H]2O[C@H](C)[C@@H](O)[C@H](N)[C@@H]2O)C[C@@H]2O[C@](O)(C[C@@H](O)C[C@H]3O[C@@H]3/C=C/C(=O)O1)C[C@H](O)[C@H]2C(=O)O [Natamycin] + CCC(C)CCCC(=O)N[C@@H](CCN)C(=O)N[C@H](C(=O)N[C@@H](CCN)C(=O)N[C@H]1CCNC(=O)[C@H]([C@@H](C)O)NC(=O)[C@H](CCN)NC(=O)[C@H](CCN)NC(=O)[C@H](CC(C)C)NC(=O)[C@@H](CC(C)C)NC(=O)[C@H](CCN)NC1=O)[C@@H](C)O [colistin] | inactive: 0.967
3 | CC1(C)S[C@@H]2[C@H](NC(=O)C(C(=O)O)c3ccccc3)C(=O)N2[C@H]1C(=O)O (some centres undefined) [Carbenicillin disodium] + CCC(C)CCCC(=O)N[C@@H](CCN)C(=O)N[C@H](C(=O)N[C@@H](CCN)C(=O)N[C@H]1CCNC(=O)[C@H]([C@@H](C)O)NC(=O)[C@H](CCN)NC(=O)[C@H](CCN)NC(=O)[C@H](CC(C)C)NC(=O)[C@@H](CC(C)C)NC(=O)[C@H](CCN)NC1=O)[C@@H](C)O [colistin] | inactive: 1.12
4 | COc1ccc(CN(CCN(C)C)c2ccccn2)cc1 [Mepyramine maleate] + CCC(C)CCCC(=O)N[C@@H](CCN)C(=O)N[C@H](C(=O)N[C@@H](CCN)C(=O)N[C@H]1CCNC(=O)[C@H]([C@@H](C)O)NC(=O)[C@H](CCN)NC(=O)[C@H](CCN)NC(=O)[C@H](CC(C)C)NC(=O)[C@@H](CC(C)C)NC(=O)[C@H](CCN)NC1=O)[C@@H](C)O [colistin] | inactive: 1.11
5 | CCC(CC)[C@H](NC(C)=O)[C@@H]1[C@H](O)[C@@H](C(=O)O)C[C@H]1NC(=N)N [Peramivir Trihydrate] + CCC(C)CCCC(=O)N[C@@H](CCN)C(=O)N[C@H](C(=O)N[C@@H](CCN)C(=O)N[C@H]1CCNC(=O)[C@H]([C@@H](C)O)NC(=O)[C@H](CCN)NC(=O)[C@H](CCN)NC(=O)[C@H](CC(C)C)NC(=O)[C@@H](CC(C)C)NC(=O)[C@H](CCN)NC1=O)[C@@H](C)O [colistin] | inactive: 0.796
6 | COc1cc2nccc(Oc3ccc(NC(=O)Nc4cc(C)on4)c(Cl)c3)c2cc1OC [Tivozanib] + CCC(C)CCCC(=O)N[C@@H](CCN)C(=O)N[C@H](C(=O)N[C@@H](CCN)C(=O)N[C@H]1CCNC(=O)[C@H]([C@@H](C)O)NC(=O)[C@H](CCN)NC(=O)[C@H](CCN)NC(=O)[C@H](CC(C)C)NC(=O)[C@@H](CC(C)C)NC(=O)[C@H](CCN)NC1=O)[C@@H](C)O [colistin] | inactive: 1.03
7 | CCCCc1ncc(/C=C(\Cc2cccs2)C(=O)O)n1Cc1ccc(C(=O)O)cc1 [Eprosartan Mesylate] + CCC(C)CCCC(=O)N[C@@H](CCN)C(=O)N[C@H](C(=O)N[C@@H](CCN)C(=O)N[C@H]1CCNC(=O)[C@H]([C@@H](C)O)NC(=O)[C@H](CCN)NC(=O)[C@H](CCN)NC(=O)[C@H](CC(C)C)NC(=O)[C@@H](CC(C)C)NC(=O)[C@H](CCN)NC1=O)[C@@H](C)O [colistin] | inactive: 1.08
8 | CO[C@@H]1[C@@H](OC(N)=O)[C@@H](O)[C@H](Oc2ccc3c(O)c(NC(=O)c4ccc(O)c(CC=C(C)C)c4)c(=O)oc3c2C)OC1(C)C [Novobiocin Sodium] + CCC(C)CCCC(=O)N[C@@H](CCN)C(=O)N[C@H](C(=O)N[C@@H](CCN)C(=O)N[C@H]1CCNC(=O)[C@H]([C@@H](C)O)NC(=O)[C@H](CCN)NC(=O)[C@H](CCN)NC(=O)[C@H](CC(C)C)NC(=O)[C@@H](CC(C)C)NC(=O)[C@H](CCN)NC1=O)[C@@H](C)O [colistin] | active: 0.038
9 | CC(=O)OCC1=C(C(=O)O)N2C(=O)[C@@H](NC(=O)Cc3cccs3)[C@H]2SC1 [Cephalothin sodium] + CCC(C)CCCC(=O)N[C@@H](CCN)C(=O)N[C@H](C(=O)N[C@@H](CCN)C(=O)N[C@H]1CCNC(=O)[C@H]([C@@H](C)O)NC(=O)[C@H](CCN)NC(=O)[C@H](CCN)NC(=O)[C@H](CC(C)C)NC(=O)[C@@H](CC(C)C)NC(=O)[C@H](CCN)NC1=O)[C@@H](C)O [colistin] | inactive: 0.807

From the supplement of paper PMC11546906
